Assay results from PubChem BioAssay AID2685 (National Center for Advancing Translational Sciences (NCATS), 2010).
Some of the results follow. Further columns of the screen follow, without active or inactive calls. Most of these compounds were active or inconclusive in the main read-out, so they are no random draw. Potencies come from curve fits of mixed quality, noted in brackets.

Experiment: qHTS Assay for Lipid Storage Modulators in Drosophila S3 Cells;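 on cell number change: cells counted by Cell Tracker Red CMTPX staining in the red channel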
Settings: BODIPY lipid droplet fluorescence, 18-24 h; for cell number change: measured here: cell count max response, cells fed with added oleic acid
Procedure, shortened: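 Drosophila S3 cells loaded with oleic acid (400 uM, as added) and compounds at several concentrations; lipid droplets imaged by 488-nm laser-scanning cytometry, 500–530 nm intensity and object ratio to cell channel. Percent activity normalized to 20 uM Triacsin C.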

[1] = measured here: lipid fluorescence (Fed channel) AC50, cells fed with added oleic acid
[2] = measured here: cell number channel AC50, cells fed with added oleic acid

Question: With `Cc1cc(=O)oc2ccc(OCc3ccccc3)cc12` as the compound, how does the cell number change read?
Answer: 2.16%

Question: And the AC50 [1]?
Answer: 0.00517 µM [rising, full curve, poor fit]

Question: Which results are given for `COCCNC(=O)C(=O)Nc1ccc2c(c1)N(S(=O)(=O)c1cccs1)CCC2`?
Answer: cell number change: -31.3%; AC50 [2]: 1.84 µM [falling, partial curve]

Question: With `COc1ccccc1NC(=O)N1CCCC1C(=O)Nc1ccc2c(c1)OCCO2` (configuration not stated) as the compound, how does the cell number change read?
Answer: 0.0983%

Question: With `O=C(CC(SCCO)c1ccc([N+](=O)[O-])cc1)c1ccco1` (configuration not stated) as the compound, how does the cell number change read?
Answer: -5.97%

Question: With `COc1ccc(CNC(=O)[C@@H]2CCCN2C(=O)[C@@H]2Cc3ccccc3CN2C(=O)OC(C)(C)C)cc1` as the compound, how does the cell number change read?
Answer: -0.943%

Question: And the AC50 [1]?
Answer: 29.1 µM [falling, single point]

Question: Which cell number change does the source give for `COc1ccc(C(=S)N2CCN(C)CC2)cc1` here?
Answer: -40.9%

Question: And the AC50 [2]?
Answer: 29.1 µM [falling, single point]

Question: Which cell number change does the source give for `N/C(=N\OC(=O)N1CCOCC1)c1ccccc1` here?
Answer: -1.34%

Question: And the AC50 [1]?
Answer: 0.731 µM [falling, full curve, poor fit]

Question: Which cell number change does the source give for `COCCCN1C(=O)c2ccc(C(=O)Nc3ccccc3OC)cc2C1=O` here?
Answer: 17.1%

Question: What about the AC50 [1] of the same compound?
Answer: 29.1 µM [rising, single point]

Question: For `O=C1CCCN1CCCNCC(=O)N1c2ccccc2Sc2ccccc21`, which AC50 [2] is on record?
Answer: 0.13 µM [rising, full curve, poor fit]

Question: With `O=C(CSc1n[nH]c(-c2ccco2)n1)N1c2ccccc2Sc2ccccc21` as the compound, how does the AC50 [1] read?
Answer: 18.4 µM [falling, partial curve]

Question: For `COc1ccccc1CNC(=O)COC(=O)c1ccc(C)c(S(=O)(=O)N2CCOCC2)c1`, which cell number change is on record?
Answer: 0.453%

Question: What about the AC50 [2] of the same compound?
Answer: 0.82 µM [falling, full curve, poor fit]

Question: What about the AC50 [1] of the same compound?
Answer: 0.82 µM [falling, full curve, poor fit]

Question: What does the source list for `OC(CNCc1ccccc1Cl)C(F)(F)F` (configuration not stated)?
Answer: cell number change: -18.8%; AC50 [1]: 15.8 µM [falling, single point]

Question: With `COc1ccc2[nH]c(C)c(CCNC(=S)Nc3cccc(C)c3C)c2c1` as the compound, how does the cell number change read?
Answer: 4.72%

Question: And the AC50 [1]?
Answer: 1.46 µM [rising, full curve, poor fit]

Question: With `NC1=C(Br)C(=O)c2ccccc2C1=O` as the compound, how does the cell number change read?
Answer: -28.7%

Question: And the AC50 [1]?
Answer: 13 µM [falling, partial curve, poor fit]

Question: Which AC50 [2] does the source give for `COc1cc(C)c(Cl)cc1S(=O)(=O)n1cnc2ccccc21` here?
Answer: 0.184 µM [rising, full curve, poor fit]

Question: What does the source list for `Cc1ccc(N2CCN(C(=O)Nc3cccc([N+](=O)[O-])c3)CC2C)cc1` (configuration not stated)?
Answer: cell number change: -30.4%; AC50 [2]: 12.6 µM [falling, single point]

Question: Which results are given for `Cc1nc2ccccc2n1CCc1nc2c3ccccc3nc(SCC(=O)NCc3ccco3)n2n1`?
Answer: cell number change: -69.7%; AC50 [2]: 18.4 µM [falling, partial curve]; AC50 [1]: 18.4 µM [falling, partial curve]

Question: With `CCc1cc2c(C)cc(=O)oc2cc1OC(=O)C1CCCN1C(=O)OC(C)(C)C` (configuration not stated) as the compound, how does the cell number change read?
Answer: -2.12%

Question: What about the AC50 [2] of the same compound?
Answer: 0.651 µM [falling, single point]

Question: Which cell number change does the source give for `CCCCC(Nc1ncnc2ccccc12)C(=O)O` (configuration not stated) here?
Answer: 9.51%

Question: With `COc1ccc(C(Nc2cccc([N+](=O)[O-])c2)P(=O)(OC(C)C)OC(C)C)cc1` (configuration not stated) as the compound, how does the cell number change read?
Answer: 6.08%

Question: And the AC50 [1]?
Answer: 29.1 µM [rising, single point]

Question: With `O=C(CN(Cc1ccccc1Cl)C(=O)c1csnn1)NCc1ccc(F)cc1` as the compound, how does the cell number change read?
Answer: -12.4%

Question: With `CC(=O)c1cccc(NC(=O)C2CCCC2)c1` as the compound, how does the cell number change read?
Answer: 0.881%

Question: What about the AC50 [1] of the same compound?
Answer: 0.0058 µM [falling, full curve, poor fit]

Question: For `CCOc1ccc2ccccc2c1/C=N/NC(=O)c1cc(C)[nH]n1`, which AC50 [1] is on record?
Answer: 3.55 µM [rising, single point]

Question: Which cell number change does the source give for `CC(C)(C)Cc1nnc(NC(=O)c2ccc([N+](=O)[O-])cc2)s1` here?
Answer: 20.6%

Question: And the AC50 [1]?
Answer: 0.164 µM [falling, full curve]

Question: With `CCCCC1(CO)C(=O)N(c2ccccc2)N(c2ccccc2)C1=O` as the compound, how does the cell number change read?
Answer: 4.48%

Question: And the AC50 [1]?
Answer: 6.51 µM [rising, single point]

Question: For `COCCn1c(SCC(=O)NCc2ccc3c(c2)OCO3)nnc1C(C)C`, which cell number change is on record?
Answer: 5.83%

Question: What about the AC50 [1] of the same compound?
Answer: 0.731 µM [rising, partial curve]

Question: Which AC50 [2] does the source give for `COc1cc(NC(=O)c2ccc(COCC(F)(F)F)o2)cc(OC)c1OC` here?
Answer: 4.11 µM [rising, single point]

Question: Which cell number change does the source give for `Cn1cnnc1SCc1ccc(F)c2ccccc12` here?
Answer: 33.4%

Question: What about the AC50 [2] of the same compound?
Answer: 2.59 µM [rising, partial curve]

Question: With `Clc1cccc(-c2ccc(CNCc3ccccn3)o2)c1` as the compound, how does the cell number change read?
Answer: -6.08%

Question: What about the AC50 [1] of the same compound?
Answer: 29.1 µM [falling, single point]

Question: With `CC(=O)N=c1sc2cc(C)ccc2n1C` as the compound, how does the cell number change read?
Answer: 24.2%

Question: With `CN(C)S(=O)(=O)c1cccc(NS(=O)(=O)c2ccc(Cl)s2)c1` as the compound, how does the cell number change read?
Answer: -62.7%

Question: What about the AC50 [2] of the same compound?
Answer: 18.4 µM [falling, single point]

Question: And the AC50 [1]?
Answer: 11.6 µM [falling, single point]

Question: For `CC1CC(C)CN(Cc2nc(N)nc(Nc3ccccc3)n2)C1` (configuration not stated), which cell number change is on record?
Answer: 44.4%

Question: And the AC50 [2]?
Answer: 6.51 µM [rising, partial curve]

Question: What about the AC50 [1] of the same compound?
Answer: 29.1 µM [rising, single point]

Question: For `COc1ccc(NC(=O)C2CCC(=O)N2S(=O)(=O)c2ccc(C)cc2)cc1Cl` (configuration not stated), which cell number change is on record?
Answer: 8.97%

Question: And the AC50 [1]?
Answer: 0.651 µM [rising, partial curve, poor fit]

Question: With `O=C(N/N=C/c1coc2ccc(Cl)cc2c1=O)c1cc(O)cc(O)c1` as the compound, how does the AC50 [1] read?
Answer: 0.00461 µM [falling, full curve, poor fit]

Question: For `Cc1nc2ccc(S(=O)(=O)NC(C(=O)NC3CCCC3)C(C)C)cc2s1` (configuration not stated), which cell number change is on record?
Answer: -10.2%

Question: What about the AC50 [1] of the same compound?
Answer: 0.058 µM [falling, full curve, poor fit]

Question: Which cell number change does the source give for `Cc1ccc2c(c1)N(CC(=O)NC1CCCC(C)C1C)C(=O)c1cccnc1O2` (configuration not stated) here?
Answer: -7.49%

Question: And the AC50 [1]?
Answer: 20.6 µM [falling, single point]

Question: Which cell number change does the source give for `COC(=O)c1ccccc1NC(=O)c1cccc(NC(=O)CSCc2ccccc2)c1C` here?
Answer: 50.9%

Question: And the AC50 [2]?
Answer: 0.731 µM [rising, full curve]

Question: What about the AC50 [1] of the same compound?
Answer: 6.51 µM [rising, single point]

Question: Which results are given for `CCn1c(O)c(N=NC(=O)c2cccnc2)c2cc(Br)ccc21`?
Answer: cell number change: 20%; AC50 [1]: 0.082 µM [rising, full curve, poor fit]

Question: Which cell number change does the source give for `COc1ccc(CNC(=O)C2CC(c3ccccc3C(F)(F)F)=NO2)cc1` (configuration not stated) here?
Answer: 28.5%

Question: What about the AC50 [1] of the same compound?
Answer: 29.1 µM [rising, partial curve, poor fit]
